The campaign covered roughly 340,000 compounds. About 170 (0.05%) were called active. The inconclusive results got no clear call from the source; some entries with a clear call stand among them for comparison. Calls come from the whole dose curve; as a rule, active = well fitted inhibition curve with a large enough effect in the signal ratio, with a control signal flat (not every such curve was filed as active); inconclusive = small, poorly fitted or top-dose-only effect, or effect the other way, or a change in a side signal; inactive = flat fitted curve, though single readings scatter; the % refers to the signal ratio. Potencies of inconclusive entries are doubtful fits and often do not repeat.
Experiment: qHTS Assay to Find Inhibitors of Chronic Active B-Cell Receptor Signaling;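 for activity change, negative = inhibition: plate controls were basal doxycycline-induced cells for no effect and cells given 10 µM MG132 for full effect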
Conditions: ABC-DLBCL IkBa-CBG/CBR reporter, luminescence ratio (green luciferase fused to IkBa over red control in TMD8 lymphoma cells), 4 h; activity change, negative = inhibition: at 46.1 µM (top of the series)
How it was run: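 Compounds up to 46 uM were incubated four hours with TMD8 cells whose green CBG68 luciferase is fused to IkappaBalpha; red CBR luminescence normalised the signal, and concentration-effect curves were fitted to fusion, red and ratio data.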
Potency is the fitted concentration of half-maximal effect.

Compound | Potency | activity change, negative = inhibition
CCCn1c(C2CCCN2c2nc(-c3cccc(Br)c3)cs2)nc2ccccc21 (stereo unspecified) | inconclusive: 6.31 µM [falling, single point] | –
O=C(Cn1cccc1)Nc1ccc(OC(F)(F)F)cc1 | – | inconclusive: -2.96%
CCN(CC(=O)NC(C)C)Cc1nc2c(Br)cc(Br)cc2c(=O)[nH]1 | inconclusive: 22.4 µM [falling, single point] | –
CN(C)S(=O)(=O)n1cc(/C=C(\NC(=O)c2ccccc2F)C(=O)NCCCn2ccnc2)c2ccccc21 | – | inconclusive: 8.31%
OC(c1cc(C(F)(F)F)nc2c(C(F)(F)F)cccc12)C1CCCCN1 (stereo unspecified) | inconclusive: 0.58 µM [rising, full curve, poor fit] | –
Clc1ccc(OCCN2CCOCC2)cc1Cl | – | inconclusive: 15.5%
Cc1ccc(S(=O)(=O)N2CCCC(C(=O)Nc3cccnc3)C2)cc1 (stereo unspecified) | – | inconclusive: -12.8%
COc1cc(N=Cc2c(O)c3ccccc3oc2=O)c(OC)cc1Cl | inconclusive: 1.12 µM [falling, full curve, poor fit] | –
COc1ccccc1N1CCN(C(=O)c2cc3c(=O)n4ccccc4nc3s2)CC1 | – | inconclusive: -0.13%
Cc1c(NC(=O)/C(C#N)=C/c2ccc(-c3ccc(Cl)cc3)o2)c(=O)n(-c2ccccc2)n1C | – | inconclusive: 6.3%
N#C/C(=C\c1ccc(-c2ccccc2C(=O)O)o1)c1nc2ccccc2[nH]1 | – | inactive
COc1ccc(/C=C/c2nc3ccccc3n2C)cc1 | inconclusive: 35.5 µM [rising, single point] | –
CCOC(=O)c1ccccc1NC(=O)c1cc2ccccc2o1 | inconclusive: 0.447 µM [falling, partial curve, poor fit] | –
O=C(NC1CC2CCCC(C1)N2C(=O)NC1CCCCC1)c1ccccc1 (stereo unspecified) | – | inconclusive: 9.48%
Fc1ccc(CO/N=C/C2=C(Cl)c3ccccc3CC2)cc1 | – | inconclusive: 1.88%
COc1ccc(Br)cc1S(=O)(=O)N1CCOCC1 | – | inconclusive: -0.906%
O=C(NNc1ncnc2sccc12)c1ccc(Cl)cc1 | – | inconclusive: -9.97%
Cc1ccc(C)c(C(=O)CSc2nc3ccccc3c(=O)[nH]2)c1 | – | inconclusive: 10.5%
CC(=O)c1ccccc1NC(=O)COC(=O)c1ccccc1NC(=O)c1ccccc1 | inconclusive: 14.6 µM [falling, partial curve] | –
CCOc1ccc(N=C(/C(C(=O)C(=O)N2CCOCC2)=C(/O)c2ccccc2)c2ccccc2)cc1 | inconclusive: 31.6 µM [falling, partial curve] | –
O=c1c2cn[nH]c2nc(SCc2ccc3c(c2)OCCO3)n1-c1ccccc1 | inconclusive: 18.4 µM [falling, partial curve, poor fit] | –
CC(=O)CC1(C)OC(N)=C(C#N)C1(C#N)C#N (stereo unspecified) | – | inconclusive: -2.44%
COc1ccc2cc(C(=O)/C=C/c3cc(OC)c(O)c(OC)c3)ccc2c1 | inconclusive: 22.4 µM [falling, single point] | –
Cc1cc(S(=O)(=O)N2CCOCC2)ccc1OCC(=O)N1CCCC1 | – | inactive
COc1cc(OC)cc(C(=O)Nc2cccc(NC(=O)c3ccccc3)c2)c1 | – | inconclusive: -9.21%
O=C(NC(=S)Nc1cccc(NC(=O)c2ccccc2Cl)c1)c1cccs1 | – | inconclusive: 3.31%

Compound | Potency | activity change, negative = inhibition
c1ccc(-c2noc(-c3cccs3)n2)nc1 | inconclusive: 29.1 µM [falling, single point] | –
C=CCNS(=O)(=O)NC(=O)C1=C(N2CCCC2)COC1=O | – | inactive
Cc1cccc(C)c1NC(=O)C(=O)c1cn(C)c2ccccc12 | inconclusive: 14.1 µM [falling, partial curve, poor fit] | –
Cn1c(CNC(=O)c2ccco2)nnc1SCC(=O)c1ccc(Br)cc1 | – | inconclusive: 11.2%
COc1ccccc1-c1c(C)oc2c(CN3CCOCC3)c(O)ccc2c1=O | – | inactive
O=C(O)c1cc(N/N=C/C=C/c2ccccc2)ccc1Cl | inconclusive: 12.6 µM [falling, partial curve] | –
CSc1nc(C)c2c(c1C#N)CCCC2 | inconclusive: 9.2 µM [falling, partial curve] | –
COc1ccc([C@H]2[C@H](C(=O)C(C)(C)C)N3N=Cc4ccccc4C3C23C(=O)OC(C)(C)OC3=O)cc1 (stereo partly specified) | – | inconclusive: 7.79%
COc1ccc(C2CC(=O)c3cnc(NC(=O)c4cc(OC)cc(OC)c4)nc3C2)cc1 (stereo unspecified) | inconclusive: 11.2 µM [falling, partial curve] | –
O=C(Nc1ccccc1)Nc1ccc2ocnc2c1 | inconclusive: 25.1 µM [falling, single point] | –
Cc1cc(C)c2c(=O)[nH]n(C3CC(C)N(C)CC3C)c2n1 (stereo unspecified) | – | inconclusive: 12.5%
CC1CCC(NC(=O)Nc2cccs2)CC1 (stereo unspecified) | – | inconclusive: 22.6%
Cc1ccc2cc(COC(=O)c3cccc([N+](=O)[O-])c3)c(=O)[nH]c2c1 | – | inactive
COC(/C(=N/O)c1ccc(Cl)cc1)c1ccccc1 (stereo unspecified) | – | inactive
COc1ccc(N2C(=O)C3C(C2=O)C(C(=O)c2ccc(Cl)cc2)N2CCCC32)cc1 (stereo unspecified) | inconclusive: 20 µM [falling, single point] | –
CCn1cnc2c(cnn2-c2ccccc2)c1=O | – | inactive
CC(CC(=O)N(C)c1c(N)n(Cc2ccccc2)c(=O)[nH]c1=O)c1ccccc1 (stereo unspecified) | – | inconclusive: 9.27%
O=C(O)c1ccc(Cl)c(S(=O)(=O)Nc2ccc3cn[nH]c3c2)c1 | – | inactive
CCN(CC(=O)NC(C)(C)C)C(=O)COc1c(Cl)cc(Cl)c2ccc(C)nc12 | – | inconclusive: -20.5%
CC1CCCN(CCOCCOc2ccc(Cl)cc2Br)C1 (stereo unspecified) | – | inconclusive: -21.9%
Cc1ccc(OCC(=O)N/N=C\c2ccc(C)o2)c(C)c1 | inconclusive: 35.5 µM [falling, single point] | –
CCCNC(=O)CSc1n[nH]c(=O)n1CCc1ccccc1 | – | inactive
CCCOc1cccc(C(=O)Nc2ccc3c(c2)OCCO3)c1 | inconclusive: 11.2 µM [falling, partial curve] | –
O=C(O)c1ccccc1C(=O)c1ccc(Sc2ccc(Cl)cc2)c([N+](=O)[O-])c1 | – | inconclusive: 12.7%
O=C(NCc1ccccn1)C1CCN(Cc2cnn(-c3ccccc3)c2-n2cccc2)CC1 | – | inconclusive: -2.23%
COc1ccccc1Oc1ccc(S(=O)(=O)NCc2ccccn2)cc1 | – | inconclusive: 1.57%

2 consecutive compounds already listed, quoted:
Compound | Potency | activity change, negative = inhibition
CC(=O)CC1(C)OC(N)=C(C#N)C1(C#N)C#N (stereo unspecified) | – | inconclusive: -2.44%
COc1ccc2cc(C(=O)/C=C/c3cc(OC)c(O)c(OC)c3)ccc2c1 | inconclusive: 22.4 µM [falling, single point] | –

Next part:

Compound | Potency | activity change, negative = inhibition
COc1ccccc1C(=O)Nc1nc(N)n(-c2ccccc2)n1 | inconclusive: 35.5 µM [falling, single point] | –
CC(=O)c1oc2ccccc2c1NC(=O)CCCN1C(=O)c2ccccc2C1=O | inconclusive: 1.84 µM [rising, full curve, poor fit] | –
CCOC(=O)c1c(NC(=O)c2cccs2)sc2c1CC(C)(C)OC2 | – | inconclusive: -15.2%
COCCC(=O)N1CCC(Oc2ccc(C(=O)NCc3ncc(C)[nH]3)cc2)CC1 | – | inconclusive: 2.12%
CCc1ccc(N2C(=O)CN(Cc3ccccc3)C2=S)cc1 | – | inconclusive: 5.71%
O=C1OC[C@@H]2CCCN2C(=O)[C@@H](CC(=O)N(CCO)Cc2ccccc2)C/C=C\CC[C@H]1Cc1ccc(F)cc1 | – | inconclusive: -4.24%
Cc1ccc(-c2cc(C(=O)NC(C)c3ccccc3)c3ccccc3n2)cc1C (stereo unspecified) | – | inconclusive: -0.193%
O=C(OCC(=O)N1CCCCC1)c1cccc(NS(=O)(=O)c2ccccc2)c1 | inconclusive: 8.2 µM [falling, partial curve, poor fit] | –
O=C(N/N=C/C=C/c1ccccc1)c1ccccn1 | inconclusive: 31.6 µM [rising, single point] | –
CCCS(=O)(=O)c1ncc(Cl)c(C(=O)N2CCN(c3ccc(OC)cc3)CC2)n1 | inconclusive: 35.5 µM [rising, single point] | –
Cc1c(C)n(CCN(C)C)c2ncnc(NCc3ccccc3)c12 | – | inconclusive: 1.08%
O=C1c2ccccc2S(=O)(=O)c2cc(C(=O)N(c3ccccn3)c3ccccn3)ccc21 | – | inconclusive: 16.7%
CCOC(=O)C(=O)C1=C(N2CCOCC2)/C(=C\c2ccc(F)cc2)CC1 | – | inactive
COc1ccc(C(=O)/C=C/c2ccccc2C(F)(F)F)cc1 | inconclusive: 35.5 µM [falling, single point] | –
COCCN(C(=O)c1ccco1)C(C(=O)NC1CCCC1)c1cccs1 (stereo unspecified) | – | inconclusive: 12.7%
CC(=O)Nc1cccc(C(=O)N(CCc2ccccc2)Cc2ccccc2)c1 | – | inconclusive: 10.8%
COC(=O)c1ccc(NC(=O)c2ccc(NC(=O)c3ccco3)cc2)cc1 | – | inconclusive: -8.58%
CCC(C)N(C(=O)COC(=O)c1ccccc1SCC(=O)N1CCCC1)C1CCS(=O)(=O)C1 (stereo unspecified) | – | inconclusive: -27.4%
Cc1ccc(C(=O)OC/C(O)=C(\C#N)c2nc3ccccc3[nH]2)cc1S(=O)(=O)N1CCOCC1 | inconclusive: 4.11 µM [falling, partial curve, poor fit] | –
COc1ccc(C2C(C(=O)Nc3cccc(C)n3)c3ccccc3C(=O)N2C)cc1 (stereo unspecified) | – | inconclusive: 14.8%
Cn1cc(/C=N/NC(N)=S)c2ccccc21 | inconclusive: 35.5 µM [cytotoxic, single point] | –
CCOC(=O)C1=C(C)NC(C)=C(C(=O)OCC)C1c1ccccn1 | – | inconclusive: 0.76%
COc1cc(/C=C2\SC(=O)N(CC(=O)Nc3ccccc3F)C2=O)cc(Cl)c1O | inconclusive: 6.31 µM [falling, partial curve] | –
O=C(Nc1cccc(C(=O)Nc2ccccc2F)c1)c1ccccc1 | inconclusive: 17.8 µM [falling, single point] | –

Complete entries from above. Order of values: Potency | activity change, negative = inhibition
O=C1c2ccccc2S(=O)(=O)c2cc(C(=O)N(c3ccccn3)c3ccccn3)ccc21 in the list: – | inconclusive: 16.7%
CC(=O)Nc1cccc(C(=O)N(CCc2ccccc2)Cc2ccccc2)c1 in the list: – | inconclusive: 10.8%
CCC(C)N(C(=O)COC(=O)c1ccccc1SCC(=O)N1CCCC1)C1CCS(=O)(=O)C1 (stereo unspecified) in the list: – | inconclusive: -27.4%
